According to article PMC9037475:
No constants are given. Whether binding was seen depends on the method and setting. In cells and extracts the contact can be indirect. Here binding means that the protein was enriched with, or labelled near, the bait; the list need not be complete. Tags and fused reporters may be left off the sequences shown.

Protein sequences, listed by entry. Tags and fused reporters are not part of them.
UniProt P01106: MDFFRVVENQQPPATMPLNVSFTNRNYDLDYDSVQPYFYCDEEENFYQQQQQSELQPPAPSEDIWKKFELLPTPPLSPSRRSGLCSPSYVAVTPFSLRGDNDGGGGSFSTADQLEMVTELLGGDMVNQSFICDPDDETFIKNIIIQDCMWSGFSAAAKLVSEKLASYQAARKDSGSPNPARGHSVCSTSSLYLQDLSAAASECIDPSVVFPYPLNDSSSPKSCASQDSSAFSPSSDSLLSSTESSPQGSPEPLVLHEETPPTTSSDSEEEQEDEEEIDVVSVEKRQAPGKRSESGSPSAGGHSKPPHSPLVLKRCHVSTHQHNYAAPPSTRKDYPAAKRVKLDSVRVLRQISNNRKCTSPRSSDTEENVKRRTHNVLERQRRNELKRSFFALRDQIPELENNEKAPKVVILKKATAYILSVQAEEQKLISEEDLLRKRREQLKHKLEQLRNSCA

Molecular target: T1, Flag-tagged Fbxl8 (wildtype), expressed in 293 T cells (UniProt Q96CD0)
T1 sequence: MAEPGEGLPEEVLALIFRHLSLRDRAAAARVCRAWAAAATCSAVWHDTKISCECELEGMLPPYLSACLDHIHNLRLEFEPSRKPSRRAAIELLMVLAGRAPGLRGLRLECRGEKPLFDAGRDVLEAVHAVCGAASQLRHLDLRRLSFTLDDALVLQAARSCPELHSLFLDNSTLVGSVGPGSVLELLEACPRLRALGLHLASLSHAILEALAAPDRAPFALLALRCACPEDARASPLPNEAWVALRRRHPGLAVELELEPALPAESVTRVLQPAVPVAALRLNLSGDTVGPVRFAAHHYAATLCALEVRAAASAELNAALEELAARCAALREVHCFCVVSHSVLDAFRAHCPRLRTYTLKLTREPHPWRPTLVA
Experiment: affinity purification with mass spectrometry; Flag-Fbxl8 expressed in 293 T cells; Tween 20 lysis buffer; complexes purified on FLAG M2 agarose, SDS-PAGE, silver stain, gel pieces to mass spectrometry

binding: binds
Substance: c-myc coprecipitating from 293 T cells (from UniProt P01106 1-454)
